From US9994617B2, “Modulation of structured polypeptide specificity” (BICYCLE THERAPEUTICS LIMITED, priority 2011, dated 2018)
No constants are given. Whether binding was seen depends on the method and setting.

T1: Human factor XIIa (hfXIIa) (human) (UniProt P00748)
T1 sequence (looked up): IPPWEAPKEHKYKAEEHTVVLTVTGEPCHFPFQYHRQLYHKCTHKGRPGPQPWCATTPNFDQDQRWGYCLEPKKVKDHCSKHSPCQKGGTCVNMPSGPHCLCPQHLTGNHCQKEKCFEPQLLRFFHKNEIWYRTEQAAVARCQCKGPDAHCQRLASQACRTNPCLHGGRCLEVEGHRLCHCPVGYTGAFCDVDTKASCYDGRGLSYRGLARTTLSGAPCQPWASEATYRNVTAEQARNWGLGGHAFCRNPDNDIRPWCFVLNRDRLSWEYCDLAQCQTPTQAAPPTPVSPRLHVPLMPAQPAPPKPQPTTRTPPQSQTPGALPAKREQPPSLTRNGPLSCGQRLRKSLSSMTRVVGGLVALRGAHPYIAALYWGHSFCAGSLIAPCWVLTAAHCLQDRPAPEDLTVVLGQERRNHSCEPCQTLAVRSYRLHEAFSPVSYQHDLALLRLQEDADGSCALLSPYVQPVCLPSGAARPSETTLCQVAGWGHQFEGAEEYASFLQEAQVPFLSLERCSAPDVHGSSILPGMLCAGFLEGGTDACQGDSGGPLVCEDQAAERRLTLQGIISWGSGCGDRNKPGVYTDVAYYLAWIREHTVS


Each binder was assayed against T1, Human factor XIIa (hfXIIa) (human) (assay: protease inhibition assay).
ACRWPARCTHQNYCA (three Cys linked to TBMB scaffold; free N-terminus; amidated C-terminus) [06-54 (2A2) T] was tested, and the binding was “no binding (tested: 100 µM)”.

Each binder was assayed against T1, Human factor XIIa (hfXIIa) (human) (assay: protease inhibition assay (quantity not given)).
ACRWPARCTHQNYCA (three Cys linked to TBMB scaffold; free N-terminus; amidated C-terminus) [06-54 (2A2) T] was tested, and the binding was “no binding (tested: 10000 (unit not printed))”.
In the case of ACTWPARCTHQNWCA (three Cys linked to TBMB scaffold; free N-terminus; amidated C-terminus) [06-09], the binding is reported as “no binding (tested: 10000 (unit not printed))”.
For ACAWPARCLTVDLCA (three Cys linked to TBMB scaffold; free N-terminus; amidated C-terminus) [06-01], the binding was “no binding (tested: 10000 (unit not printed))”.
With ACNWPYRCLHTDLCA (three Cys linked to TBMB scaffold; free N-terminus; amidated C-terminus) [06-157] the binding was “no binding (tested: 10000 (unit not printed))”.
For ACSWPARCNHQDLCA (three Cys linked to TBMB scaffold; free N-terminus; amidated C-terminus) [06-57], the binding was “no binding (tested: 10000 (unit not printed))”.
ACSWPYRCLHQDYCA (three Cys linked to TBMB scaffold; free N-terminus; amidated C-terminus) [06-61] was tested, and the binding was “no binding (tested: 10000 (unit not printed))”.
With ACRWPARCLTTSLCA (three Cys linked to TBMB scaffold; free N-terminus; amidated C-terminus) [06-59] the binding was “no binding (tested: 10000 (unit not printed))”.
With ACADPWACLFRRPCA (three Cys linked to TBMB scaffold; free N-terminus; amidated C-terminus) [06-63 T] the binding was “no binding (tested: 10000 (unit not printed))”.
For ACGVPYRCTHQEMCA (three Cys linked to TBMB scaffold; free N-terminus; amidated C-terminus) [06-64 T (5 x 5 peptide of Table 4)], the binding was “no binding (tested: 10000 (unit not printed))”.
ACTWPARCTMQNWCA (three Cys linked to TBMB scaffold; free N-terminus; amidated C-terminus) [06-A2*] was tested, and the binding was “no binding (tested: 10000 (unit not printed))”.
